Only a part is listed here, and it is no random draw. Inconclusive results are not listed. Activity calls are given as the source filed them. Calls follow the shape of the dose curve; as a rule, active = well fitted inhibition curve with a large enough effect; inconclusive = small, poorly fitted or top-dose-only effect; inactive = no such curve, though single readings can be large or run the other way.
Assay: qHTS for Inhibitors of TGF-b: CCL64 Cells Orthogonal Assay for Cherry Picks; also: nearly all actives have a fitted effect of over 65% in size
Conditions: CCL64 CAGA-GFP reporter, TGF-b stimulated, GFP fluorescence, 18 h
Excerpt: TGF-b is a main component in the TGF-b signaling pathway which plays diverse roles in cellular and development pathways. TGF-b is the mediated by the transcription factors Smads. Although the Smad-dependent pathway is the primary canonical TGF-b signaling node, TGF-b1 can also activate alternative signaling pathways, including those involving MAPK (ERK, JNK and p38). This interaction may mediate or enhance Smad-dependent responses, or can exert Smad-independent effects. The complexity of this signaling cascade allows the TGF-b superfamily to perform unique, overlapping or redundant functions. […] We aim to identify Smad3-small molecule antagonists using a quantitative high throughput screening (qHTS) approach. […]
Suspensions of trypsinized CCL64 CAGA-GFP cells were dispensed into white, tissue culture-treated, solid 1536-well plates at 5uL/well (1000 cells/well final concentration) in DMEM medium supplemented with 1% FBS. […] The plates were measured on an Acumen eX3 Explorer plate reader for GFP fluorescence (ex488/em500-530). GFP values were calculated by determining the mean GFP fluorescence of individual cells, and compiling these values for each well to determine a total well GFP signal. The %Activity was determined from the corrected fluorescence values. […] Concentration-response curves were fitted to the signals arising from the resulting fluorescence. […]
In the case of `COc1c(O)cc2c(c1OC)-c1ccc(SC)c(=O)cc1C(NC(C)=O)CC2` (stereo unspecified), the Potency is reported as active: 206 nM.
Potency is read from the fitted curve at half-maximal effect.
